# Measurements: publication doi:10.1101/791277
# Amino acid sequences for entries named in this document (tags omitted). A change or cut given only in a name is not applied to a line headed by its entry. Residues count along the entry.
# UniProt P27986, whole entry: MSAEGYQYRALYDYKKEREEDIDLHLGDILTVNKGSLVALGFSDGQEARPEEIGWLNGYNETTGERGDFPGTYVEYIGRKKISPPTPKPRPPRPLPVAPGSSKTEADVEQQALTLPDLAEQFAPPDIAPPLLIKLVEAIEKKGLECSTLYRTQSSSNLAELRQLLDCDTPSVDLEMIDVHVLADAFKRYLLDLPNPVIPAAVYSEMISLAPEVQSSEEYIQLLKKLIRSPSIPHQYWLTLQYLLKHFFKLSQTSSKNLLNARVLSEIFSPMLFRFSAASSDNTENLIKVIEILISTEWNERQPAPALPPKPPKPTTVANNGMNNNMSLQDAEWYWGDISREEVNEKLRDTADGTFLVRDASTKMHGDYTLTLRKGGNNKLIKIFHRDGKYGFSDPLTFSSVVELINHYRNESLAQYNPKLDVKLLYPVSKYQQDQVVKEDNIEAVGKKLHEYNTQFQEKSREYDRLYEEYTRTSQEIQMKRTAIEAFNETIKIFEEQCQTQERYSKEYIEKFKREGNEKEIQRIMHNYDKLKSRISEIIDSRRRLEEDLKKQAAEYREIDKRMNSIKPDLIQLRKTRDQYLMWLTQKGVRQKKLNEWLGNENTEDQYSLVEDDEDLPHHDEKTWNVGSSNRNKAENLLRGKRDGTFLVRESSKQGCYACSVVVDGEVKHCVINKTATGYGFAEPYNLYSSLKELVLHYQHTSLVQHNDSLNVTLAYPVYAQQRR
# UniProt P27986, 479-724: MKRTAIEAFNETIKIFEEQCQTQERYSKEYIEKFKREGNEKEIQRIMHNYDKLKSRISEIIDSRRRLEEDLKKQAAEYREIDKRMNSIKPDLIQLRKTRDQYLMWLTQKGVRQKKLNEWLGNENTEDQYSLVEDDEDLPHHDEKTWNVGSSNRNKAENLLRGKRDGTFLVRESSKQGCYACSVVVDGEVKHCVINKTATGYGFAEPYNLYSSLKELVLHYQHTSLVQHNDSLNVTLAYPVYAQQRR
# UniProt P27986, 614-720: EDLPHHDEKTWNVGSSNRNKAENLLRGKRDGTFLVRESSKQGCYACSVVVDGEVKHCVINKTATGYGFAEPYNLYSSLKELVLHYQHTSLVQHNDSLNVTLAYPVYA
# UniProt O08908, whole entry: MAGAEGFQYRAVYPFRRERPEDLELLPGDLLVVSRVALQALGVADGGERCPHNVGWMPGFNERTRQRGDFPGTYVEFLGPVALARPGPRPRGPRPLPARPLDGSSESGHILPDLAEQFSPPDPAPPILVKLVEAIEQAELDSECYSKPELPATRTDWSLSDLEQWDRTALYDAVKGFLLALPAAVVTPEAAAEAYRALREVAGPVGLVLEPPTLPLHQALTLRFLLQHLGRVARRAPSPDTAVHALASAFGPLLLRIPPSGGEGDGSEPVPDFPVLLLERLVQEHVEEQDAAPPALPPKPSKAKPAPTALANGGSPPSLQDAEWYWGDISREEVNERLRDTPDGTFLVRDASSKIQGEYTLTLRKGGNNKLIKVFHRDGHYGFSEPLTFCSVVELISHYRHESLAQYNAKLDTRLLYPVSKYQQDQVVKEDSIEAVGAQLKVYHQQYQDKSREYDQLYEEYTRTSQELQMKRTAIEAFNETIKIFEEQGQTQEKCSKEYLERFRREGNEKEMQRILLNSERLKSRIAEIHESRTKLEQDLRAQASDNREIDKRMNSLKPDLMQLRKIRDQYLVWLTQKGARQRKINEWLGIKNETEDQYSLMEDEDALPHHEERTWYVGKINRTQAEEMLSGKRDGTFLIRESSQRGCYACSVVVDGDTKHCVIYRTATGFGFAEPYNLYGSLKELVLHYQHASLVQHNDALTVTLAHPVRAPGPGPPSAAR
# UniProt O08908, 603-712: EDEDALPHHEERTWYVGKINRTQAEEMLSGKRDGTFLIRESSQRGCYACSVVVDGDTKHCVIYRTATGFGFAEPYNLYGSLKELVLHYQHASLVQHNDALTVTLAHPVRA
# UniProt O00459, 342-728: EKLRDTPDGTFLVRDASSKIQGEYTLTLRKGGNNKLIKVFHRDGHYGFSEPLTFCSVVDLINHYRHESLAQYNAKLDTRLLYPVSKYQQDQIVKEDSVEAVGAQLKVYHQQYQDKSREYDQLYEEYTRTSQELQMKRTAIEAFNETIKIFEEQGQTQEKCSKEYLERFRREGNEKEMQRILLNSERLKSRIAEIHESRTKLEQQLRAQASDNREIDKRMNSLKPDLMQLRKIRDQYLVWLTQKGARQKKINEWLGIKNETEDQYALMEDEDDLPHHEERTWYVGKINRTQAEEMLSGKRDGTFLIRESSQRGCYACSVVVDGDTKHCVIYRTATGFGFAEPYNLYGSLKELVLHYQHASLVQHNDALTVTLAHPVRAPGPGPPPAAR
# Like-named read-outs stand apart in the source and are kept apart here. No constants are given. Whether binding was seen depends on the method and setting. For some assays here: In cells and extracts the contact can be indirect. Some binding calls cover weakened binding; strength is not graded here. For some assays here: Tags and fused reporters may be left off the sequences shown.
# Experiments:
# [1] = molecular target: FLAG-p55α (full-length human PI3-Kinase regulatory subunit p55α) (human) (UniProt P27986); test: co-IP
# [2] = molecular target: FLAG-p85β (full-length mouse PI3-Kinase regulatory subunit p85β) (mouse) (UniProt O08908); test: co-IP
# [3] = molecular target: FLAG-p50α (full-length human PI3-Kinase regulatory subunit p50α) (human) (UniProt P27986); test: co-IP
# [4] = molecular target: FLAG-p85α (full-length human PI3-Kinase regulatory subunit p85α) (human) (UniProt P27986); test: co-IP
# [5] = molecular target: FLAG-p55γ (full-length human PI3-Kinase regulatory subunit p55γ) (human) (UniProt Q92569); test: co-IP
# [6] = molecular target: FLAG-p85α (full-length human PI3-Kinase regulatory subunit p85α) (human) (UniProt P27986); test: co-IP; remark: listed apart in the source
# [7] = molecular target: FLAG-p50α (full-length human PI3-Kinase regulatory subunit p50α) (human) (UniProt P27986); test: co-IP; remark: listed apart in the source
# [8] = molecular target: FLAG-p85α (full-length human PI3-Kinase regulatory subunit p85α) (human) (UniProt P27986); test: co-IP; remark: listed apart in the source
# [9] = molecular target: FLAG-p85α (full-length human PI3-Kinase regulatory subunit p85α) (human) (UniProt P27986); test: co-IP; remark: listed apart in the source
# [10] = molecular target: FLAG-p50α (full-length human PI3-Kinase regulatory subunit p50α) (human) (UniProt P27986); test: co-IP; remark: listed apart in the source
# [11] = molecular target: FLAG-p50α Y307D (phosphomimic) (human) (UniProt P27986); test: co-IP
# [12] = molecular target: T1, ACK (1-489), Gal4 DNA-binding domain fusion (yeast two-hybrid bait) (UniProt Q07912); test: two-hybrid
# T1 sequence: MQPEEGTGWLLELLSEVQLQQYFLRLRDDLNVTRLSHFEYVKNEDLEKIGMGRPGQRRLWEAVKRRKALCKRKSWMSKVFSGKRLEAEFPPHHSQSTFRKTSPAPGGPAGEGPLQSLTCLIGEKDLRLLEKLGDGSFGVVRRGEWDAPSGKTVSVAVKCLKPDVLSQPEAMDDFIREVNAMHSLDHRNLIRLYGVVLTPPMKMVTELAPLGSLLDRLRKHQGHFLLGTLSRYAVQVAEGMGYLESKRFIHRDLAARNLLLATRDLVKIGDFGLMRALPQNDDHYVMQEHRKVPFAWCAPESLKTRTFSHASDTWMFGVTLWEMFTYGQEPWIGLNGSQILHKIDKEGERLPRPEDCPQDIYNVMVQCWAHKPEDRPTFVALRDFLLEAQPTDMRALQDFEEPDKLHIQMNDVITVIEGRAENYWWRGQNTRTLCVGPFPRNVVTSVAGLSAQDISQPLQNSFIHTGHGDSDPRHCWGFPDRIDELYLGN
# [13] = molecular target: T2, p85α pY607 peptide, [5-FAM]-TEDQ-[pY]-SLVEDE (human); test: fluorescence polarisation
# T2 sequence (peptide, 5-FAM on the N-terminus; phosphotyrosine at the fifth residue (Tyr607)): TEDQYSLVEDE
substance,measurement,setting,value
HA-ACK (full-length activated Cdc42-associated kinase) (from UniProt Q07912 1-1038),binding,[1],binds
same,binding,[2],binds
same,binding,[3],binds
same,binding,[4],binds
same,binding,[5],binds
same,binding,[6],binds
V5-p85β (from UniProt O08908 1-722),binding,[7],binds
same,binding,[8],binds
same,binding,[9],binds
same,binding,[10],binds
same,binding,[6],binds
same,binding,[11],binds
"p55γ (120-461), Gal4 activation domain fusion (yeast two-hybrid prey) (from UniProt Q92569 120-461) (domain or fragment)",binding,[12],binds
"p85α (479-724), Gal4 activation domain fusion (yeast two-hybrid prey) (from UniProt P27986 479-724) (domain or fragment)",binding,[12],binds
p85α cSH2 (614-720) (from UniProt P27986 614-720) (domain or fragment),binding,[13],no binding
"p85β (342-728), Gal4 activation domain fusion (yeast two-hybrid prey) (from UniProt O00459 342-728) (domain or fragment)",binding,[12],binds
p85β cSH2 (603-712) (from UniProt O08908 603-712) (domain or fragment),binding,[13],no binding
